# Results from one PubChem assay

The results are deposited in PubChem (AID1159506; NCATS, 2015).

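Genome-wide siRNA knockdown in TC32 Ewing sarcoma cells, comparing luciferase light from an NR0B1-promoter reporter with a CMV-promoter reporter 48 hours after transfection. Each siRNA was applied at 20 nM. A z-score of the log NR0B1-over-CMV signal, less the median of siRNAs with the same seed; more negative means a stronger specific loss of the NR0B1 reporter.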

This is part of the screen; most of the strongest results are not listed here. Sequences are the guide (antisense) strand, without overhang.

strand | target gene | seed-corrected z-score
UCUAUGUUCACUUGAUCGG | AKAP4 | 0.5208
UGAGCAAGUCGUAAACAUC | XAGE5 | -0.3068
AGACCUAAAGCAUAGCUCU | S100A2 | 0.08138
UCCCAGGUAACUUCUGACA | QPRT | -0.6166
AAAAUAAUAGGCUCUGUGA | PRKY | 0.002028
UUAUAUCUUAGACCGUUAC | GTF2H1 | 0.8463
UCCUCGAGAGUCGUAAUCC | CPNE7 | 0.346
AACGAAGUAUCUGUUGUGC | ERCC3 | -0.4146
UCAGGGCAUCCAAAAUUCC | LHFPL3 | -1.878
UAACAUUUCCGGCAGCUGC | KRT81 | 0.4727
AUCCAGAAGAUGGUCCGCC | FOXP3 | 0.6313
UCUAUUCCAACGGUGAACA | CPNE2 | 0.0000669
UUAGUGUUAAUAAUCUUGU | FLJ22447 | 0.04308
UCCGAUUAAUUUUCUUUCC | LOC730236 | 0.2259
ACGUAGACAAGCCCAAUUC | RHBDL3 | -0.9224
UUAAGUUGUGGGUAAAGAG | ZNF540 | -1.085
AAUUUUUAAACGUUGAGUG | NSFP1 | 1.178
UGCUGGACUCUAUUCAUGC | UBR7 | -0.3291
AAGCUACUCAGAGAGGUGA | ACTRT2 | -0.1799
UCUGUUAUCAUUCGAUACC | YARS2 | -0.3641
UAUUUGACCAAACAGUUCC | WDR37 | 0.07571
UUCCUUAGCACCGUUCUGC | RCSD1 | -0.1952
UACAGCAUCUCGAAGCUGC | GMEB2 | -0.5997
UUUGCAAACAUUAACGCAG | BCCIP | -0.05412
UUCCUUUACAGUCGUGGGC | C2CD2 | -0.6617
AAAGUACCAGCAUCAAGCC | HACL1 | 0.6539
UGAAGAGUAGAACAUGUCC | LRP5 | 0.07324
AUCGUAACUCAAGUUUUCC | HSPH1 | 0.8928
AGAUCUAAAGGAUUCCUCC | SFMBT1 | 0.5444
AUAGGUAGUCUUCACACCG | ATXN2L | 0.07957
UCCCGUUCUUUAUUCUUCC | THSD7A | -0.9419
UUAAUAACUGUGAGAAAAU | RPL35P1 | 0.218
UUAUGUACACGUAGGACCC | OR6M1 | -1.103
UCUUCUUUUCUUUCGUUUG | LINC00467 | -0.1095
UGCUCCAUAGAGUCAAUCU | TCL1B | 0.9451
UUCAUUGUAAUCAUAAGAC | ZNF248 | 0.002292
UUCUUGUAGCUUAGGAACG | TMPRSS9 | 0.08856
UGUCUUACAGCCUUUGACC | ANKRD13B | -0.8756
UUCUCAUGCACGGUGAGGG | ZNF74 | -0.7224
UUGACUGCUAUUUGAAUCC | TNFRSF19 | 0.0188
AUUCGUUAAACUGCUCCCG | RCN1 | -0.3575
UUCGGGUUUAUCAUCCUCC | AK4 | 0.1201
AGACCUGUAAUCACGAUGU | KIR3DP1 | -0.06066
ACAUUGAUCAGAUCUUGGG | FASTKD5 | -0.1461
UAAUAAGUAAGGAGAGGUC | DNAJC4 | 0.4258
AAGGUUGUUAUAAAGCUCC | ZNF282 | 0.1468
UAAGGUUGGUGUGCGAGUG | PIR | 0.7587
UUCUAGUUCUGUUGGAGUC | CCSER2 | -0.1719
UAAAGAAGGGUGGACCUCU | SEBOX | 1.316
UUUGGGACUAAUAGCAAUC | RBKS | 0.68
UCCAUUUCUGAUUCGAGUC | GEN1 | -0.7037
UCUGGGUUCUGGGUAAGGC | C6orf47 | -0.7741
UCUGUUAAAACUUAUUGAC | TIFA | 0.6247
AUAGUGAUUAACGGGUUUG | TEK | 0.01752
AAAGUUUCUAUUCGGUUUG | PSMC1 | 0.3336
UCGCUAAAUAUUCCGAUGC | ECT2L | 0.1122
UAUCAUAACCUAAAGGAGC | ASH2L | 0.346
UAUAGGACCGGAACUUUCU | ERN2 | 0.8212
UGAGAGAUUGGAACUUCGC | ABHD15 | -0.4389
UCCGUGUCACUGUCUCUGG | PTPRCAP | -0.1559
UUCCUGAUAAUGUUCCACA | ALG2 | -0.2053
UAGAAGACUGUGCAGAUCC | PSKH2 | 0.9283
AUCGUGGUAAAACUUGUGC | SPTBN1 | 1.136
UUCCAUAGCACGUUCUUCC | CFAP53 | -0.463
UUGUAGACCAUAAGACAGC | ADAT2 | 0.5975
UCCUUGAGCACGAAUUCGU | LMX1B | -1.013
AGAAGUUUUGGGCAAUCUC | SMTNL2 | -0.2359
UGAUUUCUGCGUGUAGAUG | MS4A6A | 0.4954

For reference, 6 entries once more:

strand,target gene,seed-corrected z-score
UUAUAUCUUAGACCGUUAC,GTF2H1,0.8463
UUCAUUGUAAUCAUAAGAC,ZNF248,0.002292
UUAAGUUGUGGGUAAAGAG,ZNF540,-1.085
UUAUGUACACGUAGGACCC,OR6M1,-1.103
AACGAAGUAUCUGUUGUGC,ERCC3,-0.4146
UCGCUAAAUAUUCCGAUGC,ECT2L,0.1122